Source: PubChem BioAssay AID1471 (National Center for Advancing Translational Sciences (NCATS), 2008)
Among all 230,000 compounds or so, about 310 (0.13%) were called active. Inconclusive means that the source gave no clear call. Such entries were picked first, then a sample of the others. Calls follow the shape of the dose curve; as a rule, active = well fitted activation curve with a large enough effect; inconclusive = small, poorly fitted or top-dose-only effect; inactive = no such curve, though single readings can be large or run the other way. A potency beside an inconclusive call is a rough fit, not a confirmed value.

Assay: qHTS Multiplex Assay to Identify Dual Action Probes in a Cell Model of Huntington: Cytoprotection (ATP); also: nearly all actives have a fitted effect of over 45% in size;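 as to cytoprotection (ATP increase): toxic huntingtin expression switched on by the ecdysone agonist tebufenozide; % of control where 0% means no effect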
Conditions: PC12 HTT-Q103 induced, ATP luminescence, 40 h; cytoprotection (ATP increase): at 56.4 µM (top of the series) unless noted
In short: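 Quantitative HTS on tebufenozide-induced (100 nM) PC12 cells expressing HTTQ103 exon 1–GFP; compounds tested as a concentration series; survival measured via cellular ATP.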
Potency is read from the fitted curve at half-maximal effect.

SMILES | Potency | cytoprotection (ATP increase)
C#CCN(C(=O)Nc1ccccc1)c1ccccc1 | inconclusive: 5.62 µM [activator, single point] | 
Cc1ccc(C(=O)/C=C/c2ccc(F)cc2)o1 |  | inactive: -2.52% [at 10 µM]
CCOC(=O)N1CCC(N(CCN(C)C)C(=S)Nc2cccc(Cl)c2C)CC1 | inconclusive: 1.12 µM [activator, single point] | 
COC(=O)C1=C(O)/C(=C\c2cc(C)n(-c3ccccc3F)c2C)N=C1C | inconclusive: 5.62 µM [activator, single point] | 
Cc1ccccc1Cn1cc(S(=O)(=O)CC(=O)Nc2nccs2)c2ccccc21 | inconclusive: 0.794 µM [activator, single point] | 
COc1ccc(Nc2nc(N)nc(CN3CCC(C)CC3)n2)cc1 | inconclusive: 3.16 µM [activator, single point] | 
COc1ccc(C(=O)Oc2ccc(/C=N/NC(=O)Cc3ccc([N+](=O)[O-])cc3)cc2)cc1 | inconclusive: 2.51 µM [activator, partial curve] | 
O=C(CSc1ccc2ccccc2n1)c1ccc2c(c1)OCO2 |  | inactive: -23.6%
CCOC(=O)Cc1csc(NC(=O)C2CCCCC2C(=O)O)n1 (centres undefined) | inconclusive: 25.1 µM [activator, single point] | 
CC(=O)Nc1ccc(Sc2ccccc2C(=O)O)cc1 | inconclusive: 35.5 µM [activator, single point] | 
C#C[C@]1(O)CC[C@@H]2[C@H]3CCC4=CCCC[C@@H]4[C@@H]3CC[C@@]21C | inconclusive: 0.0891 µM [activator, full curve] | 
CCOC(=O)[C@]1(C(NC(=O)OC)c2cccc(F)c2)CCCC1=O (some centres undefined) |  | inactive: -18.5% [at 10 µM]
COC(=O)c1nnc(C(=O)NCc2ccccc2)c2[nH]c3ccc(OC)cc3c12 | inconclusive: 3.16 µM [activator, partial curve] | 
CCSc1nnc(NC(=O)C2CC2c2ccccc2)s1 (centres undefined) | inconclusive: 3.16 µM [activator, single point] | 
COc1cc2c(cc1OC)C1=C(C#N)CN(C3CCCCC3)CN1CC2 |  | inactive: -21.3%
O=c1cnc2cnc(Nc3ccccc3)nc2n1C1CC1 | active: 20 µM | 
CN1CCN(C(=O)c2cc3nc(-c4ccco4)cc(C(F)(F)F)n3n2)CC1 | inconclusive: 5.62 µM [activator, single point] | 
Nn1cnnc1SCC(=O)Nc1ccc2c(c1)OCO2 | inconclusive: 2.82 µM [activator, single point] | 
COC(=O)[C@@]1(Cc2ccc(F)cc2)[C@H]2c3cc(C(=O)N(C)C)n(CCc4c[nH]c5ccc(OC)cc45)c3C[C@H]2CN1C(=O)c1ccccc1 | inconclusive: 2.51 µM [activator, partial curve, poor fit] | 

2 compounds picked at random from those above:
SMILES | Potency | cytoprotection (ATP increase)
Cc1ccc(C(=O)/C=C/c2ccc(F)cc2)o1 |  | inactive: -2.52% [at 10 µM]
Cc1ccccc1Cn1cc(S(=O)(=O)CC(=O)Nc2nccs2)c2ccccc21 | inconclusive: 0.794 µM [activator, single point] | 
